{"source": "PubChem BioAssay AID686937 (Drosophila RNAi Screening Center, 2013)", "screen": "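Knock-downs that reduce output of a secreted reporter enzyme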 (primary screen)", "cells": "Drosophila S2 cells expressing secreted horseradish peroxidase", "reagents": "long dsRNA against Drosophila genes", "timing": "about 5.5 days (5 days dsRNA, then 12 h reporter induction)", "conditions": "reporter expression induced after 5 days of dsRNA, read 12 h later; inducer not stated", "measurement": "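Chemiluminescent measurement of peroxidase in the medium 12 h after reporter induction, following 5 days of dsRNA, given as a z-score per plate; higher means more secretion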", "reading the numbers": "z-score: higher = more reporter secreted into medium", "note": "In all, the deposit lists about 23,000 reagents; this is an unselected part of those that have a named target and a result. 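Reduced-secretion tags in replicate 1 do not always agree with the z-scores; no criterion for assigning the tags was given.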 A plus sign joins genes that one reagent is predicted to hit. Not all columns of the deposit are shown. The record does not give: the amount of reagent."}
{"gene": "RpL23A", "DRSC id": "DRSC08694", "z-score, replicate 1": 0.09}
{"gene": "RpL23A", "DRSC id": "DRSC22035", "z-score, replicate 1": 0.27}
{"gene": "Ccdc56 + mtTFB1", "DRSC id": "DRSC10809", "z-score, replicate 1": 0.06}
{"gene": "nSyb", "DRSC id": "DRSC08727", "z-score, replicate 1": 0.15}
{"gene": "nSyb", "DRSC id": "DRSC22961", "z-score, replicate 1": -0.7}
{"gene": "CG1077", "DRSC id": "DRSC12146", "z-score, replicate 1": 0.29}
{"gene": "Pcd", "DRSC id": "DRSC16785", "z-score, replicate 1": 0.18}
{"gene": "Teh3", "DRSC id": "DRSC08537", "z-score, replicate 1": 0.47}
{"gene": "CG14085", "DRSC id": "DRSC10089", "z-score, replicate 1": 0.27}
{"gene": "CG30460", "DRSC id": "DRSC06559", "z-score, replicate 1": 0.63}
{"gene": "CG30460", "DRSC id": "DRSC06560", "z-score, replicate 1": -1.72}
{"gene": "CG1354", "DRSC id": "DRSC17902", "z-score, replicate 1": 0.29}
{"gene": "CG32437", "DRSC id": "DRSC11760", "z-score, replicate 1": 0.35}
{"gene": "CG32437", "DRSC id": "DRSC22020", "z-score, replicate 1": -0.26}
{"gene": "CCDC53", "DRSC id": "DRSC03056", "z-score, replicate 1": 0.52}
{"gene": "CG14259", "DRSC id": "DRSC14754", "z-score, replicate 1": 0.33}
{"gene": "CG4338", "DRSC id": "DRSC15564", "z-score, replicate 1": 0.25}
{"gene": "CG30288", "DRSC id": "DRSC22005", "z-score, replicate 1": -0.18}
{"gene": "CG13114", "DRSC id": "DRSC02212", "z-score, replicate 1": 0.25}
{"gene": "Atg10 + CG12822", "DRSC id": "DRSC06796", "z-score, replicate 1": 0.5}
{"gene": "Adck5", "DRSC id": "DRSC10890", "z-score, replicate 1": 0.46}
{"gene": "CG42807", "DRSC id": "DRSC06966", "z-score, replicate 1": 0.45}
{"gene": "CG18808", "DRSC id": "DRSC08539", "z-score, replicate 1": 0.13}
{"gene": "Sap30", "DRSC id": "DRSC19916", "z-score, replicate 1": 0.08}
{"gene": "CG14356", "DRSC id": "DRSC14819", "z-score, replicate 1": 0.46}
{"gene": "CG32669", "DRSC id": "DRSC18864", "z-score, replicate 1": 0.05}
{"gene": "sncRNA:430e + His2A:CG33859 + His2A:CG33817 + 37 more", "DRSC id": "DRSC21264", "z-score, replicate 1": -2.12}

A few values from the entries so far.
For “z-score, replicate 1”, sncRNA:430e + His2A:CG33859 + His2A:CG33817 + 37 more [DRSC21264] shows -2.12
Under “z-score, replicate 1”, Sap30 [DRSC19916] shows 0.08
Entry for CG30460 [DRSC06560] under “z-score, replicate 1”: -1.72
Value of Adck5 [DRSC10890] under “z-score, replicate 1”: 0.46
